# Values from PubChem BioAssay AID1259254 (NCATS, 2017)
# Purpose: 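Gene knock-downs that lead to re-replication, shown by excess G2 DNA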 (primary screen)
# System: human HCT116 colorectal cancer cells
# Reagents: single siRNA against human genes
# Duration: 3 days
# Measurement: 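Nuclei stained with Hoechst and imaged; cell-cycle phase assigned by DNA content; G2 share scaled per plate, non-targeting siRNA 0%, GMNN siRNA 100%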
# Scale: G2 robust z-score: higher = more G2 cells, more excess DNA replication
# Rule for the call: 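Active siRNAs have a G2 robust z of 5 or more median absolute deviations over the median, which in these data means about 38% or higher of GMNN control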
# The whole screen tested about 59,000 reagents; this is a part drawn at random. About 1,550 of all reagents (2.6%) count as active. 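G2 share is only a proxy for re-replication; each gene was hit by three separate siRNAs, and active genes were retested.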 The numbers tell different reagents against one gene apart. Further read-outs or replicates are left out here. Not given: the amount of reagent.
target,reagent,G2 robust z-score,Call
RPGR (retinitis pigmentosa GTPase regulator),1,-0.452,inactive
RPGR (retinitis pigmentosa GTPase regulator),2,0.388,inactive
RPGR (retinitis pigmentosa GTPase regulator),3,-0.321,inactive
EEF1AKMT1 (EEF1A lysine methyltransferase 1),1,-0.17,inactive
EEF1AKMT1 (EEF1A lysine methyltransferase 1),2,-0.1,inactive
EEF1AKMT1 (EEF1A lysine methyltransferase 1),3,0.532,inactive
OR13C4 (olfactory receptor family 13 subfamily C member 4),1,1.41,inactive
OR13C4 (olfactory receptor family 13 subfamily C member 4),2,-0.428,inactive
OR13C4 (olfactory receptor family 13 subfamily C member 4),3,0.387,inactive
ADAM22 (ADAM metallopeptidase domain 22),1,0.743,inactive
ADAM22 (ADAM metallopeptidase domain 22),2,-0.128,inactive
ADAM22 (ADAM metallopeptidase domain 22),3,-0.108,inactive
BHLHE22 (basic helix-loop-helix family member e22),1,-0.309,inactive
BHLHE22 (basic helix-loop-helix family member e22),2,-0.196,inactive
BHLHE22 (basic helix-loop-helix family member e22),3,-0.631,inactive
SPOUT1 (SPOUT domain containing methyltransferase 1),1,-0.708,inactive
SPOUT1 (SPOUT domain containing methyltransferase 1),2,-0.72,inactive
SPOUT1 (SPOUT domain containing methyltransferase 1),3,-0.941,inactive
NDUFA1 (NADH:ubiquinone oxidoreductase subunit A1),1,-0.0701,inactive
NDUFA1 (NADH:ubiquinone oxidoreductase subunit A1),2,-0.281,inactive
NDUFA1 (NADH:ubiquinone oxidoreductase subunit A1),3,1.63,inactive
NRL (neural retina leucine zipper),1,-0.432,inactive
NRL (neural retina leucine zipper),2,1.23,inactive
NRL (neural retina leucine zipper),3,0.888,inactive
"GVINP1 (GTPase, very large interferon inducible pseudogene 1)",1,0.358,inactive
"GVINP1 (GTPase, very large interferon inducible pseudogene 1)",2,-0.268,inactive
"GVINP1 (GTPase, very large interferon inducible pseudogene 1)",3,-1.02,inactive
PLA2G4E (phospholipase A2 group IVE),1,0.346,inactive
PLA2G4E (phospholipase A2 group IVE),2,-0.706,inactive
PLA2G4E (phospholipase A2 group IVE),3,0.406,inactive
VWA5B2 (von Willebrand factor A domain containing 5B2),1,0.0284,inactive
VWA5B2 (von Willebrand factor A domain containing 5B2),2,-0.745,inactive
VWA5B2 (von Willebrand factor A domain containing 5B2),3,-0.108,inactive
SEMA3E (semaphorin 3E),1,-0.871,inactive
SEMA3E (semaphorin 3E),2,-0.472,inactive
SEMA3E (semaphorin 3E),3,-0.25,inactive
"AFDN (afadin, adherens junction formation factor)",1,3.41,inactive
"AFDN (afadin, adherens junction formation factor)",2,0.59,inactive
"AFDN (afadin, adherens junction formation factor)",3,-1.07,inactive
"AFDN (afadin, adherens junction formation factor)",4,0.0737,inactive
"AFDN (afadin, adherens junction formation factor)",5,5.85,active
"AFDN (afadin, adherens junction formation factor)",6,2.47,inactive
SMLR1 (small leucine rich protein 1),1,-0.45,inactive
SMLR1 (small leucine rich protein 1),2,0.187,inactive
SMLR1 (small leucine rich protein 1),3,3.65,inactive
PSRC1 (proline and serine rich coiled-coil 1),1,4.89,inactive
PSRC1 (proline and serine rich coiled-coil 1),2,-0.873,inactive
PSRC1 (proline and serine rich coiled-coil 1),3,0.0776,inactive

Hits, among the entries above:
target,reagent,G2 robust z-score,Call
"AFDN (afadin, adherens junction formation factor)",5,5.85,active
